{
  "source": "patent US20250282895A1",
  "about": "“PHARMACEUTICAL COMPOSITIONS OF CHEMOTHERAPEUTIC AGENTS BASED ON BETA-S[…]-AMINO ACID DERIVATIVES” (priority 2021, published 2025)",
  "assay_type_in_all_cases": "physicochemical",
  "key": {"[1]": {"assay": "Stability (impurities) of Compound (1c):SBE6.5-β-CD formulations with and without mannitol", "settings": "Compound (1c) itself (line before Cake)"}, "[2]": {"assay": "Comparative stability, Formulation 3 (based on Evomela, SBE6.5-β-CD)", "settings": "Formulation 3, 25° C., pH 5-6 (Compound (1c)•HCl), listed as Compound (1c) Free Base", "method": "The stability of Compound (1c) either as the HCl salt or as the free base was compared to the stability of melphalan HCl and/or bendamustine HCl in various pharmaceutical formulations and at different concentrations and at temperatures of 0° C. or 25° C.\nThe stability of the compounds in the pharmaceutical formulations was determined at concentrations within the range from 0.4 mg/mL to 0.5 mg/mL, from 0.9 mg/mL to 1.1 mg/mL, and from 1.8 mg/mL to 2.1 mg/mL.\nThe amount of the active pharmaceutical ingredient (API) (Compound (1c), melphalan or bendamustine) in the pharmaceutical formulations at different times during storage was determined using HPLC/UV as described in detail for Example 4 and Example 5.\nEvomela® is an injectable formulation of melphalan hydrochloride, 4-[bis(2-chloroethyl)amino]-L-phenylalanine hydrochloride, approved by the FDA. Evomela® is supplied as a sterile white to off-white lyophilized powder in a single-dose vial for intravenous use. Each vial containing 50 mg melphalan free base equivalent to 56 mg melphalan hydrochloride and 2,700 mg betadex sulfobutyl ether (SBE6.5-β-CD; sulfobutyl ether β-cyclodextrin sodium) sodium, NF. Normal saline solution (0.9% Sodium Chloride Injection, USP) (8.6 mL as directed) is used to reconstitute Evomela® to a total of 10 mL having a 5 mg/mL nominal concentration of melphalan. The required volume of Evomela® needed for a patient dose is withdrawn from the vial(s) and added to the appropriate volume of 0.9% Sodium Chloride Injection, USP, to a final nominal concentration of 0.45 mg/mL of melphalan. This solution is then infused via an injection port or central venous catheter.\nA series of 12 mL glass vials each containing 5.5 mg (0.0165 mmol of Compound (1c) free base and 270 mg of SBE6.5-β-CD, Captisol®) were prepared as described in Example 4.\nThe cyclodextrin derivative/Compound (1c) free base guest-host inclusion complex was reconstituted by dissolving the guest-host inclusion complex in 0.86 mL of 0.9% saline to provide 1.0 mL of a solution having a nominal concentration of 5.5 mg/mL of Compound (1c) free base.\n(§1) A 1.0 mL aliquot of this solution was diluted with 10.0 mL of 0.9% saline, and the pH adjusted with 5 μL of a saturated aqueous NaHCO3 solution to provide 11.0 mL of a clear, colorless solution having a nominal concentration of 0.50 mg/mL of Compound (1c) from Compound (1c) free base and a pH from 5.8 to 6.1.\nas §1, with “4.5” for “10.0”, “5.5” for “11.0”, “1.0” for “0.50”, “of about” for “from 5.8 to”\nas §1, with “1.75” for “10.0”, “2.75” for “11.0”, “2.0” for “0.50”, “of about” for “from 5.8 to”\nA series of 12 mL glass vials each containing 6.1 mg (0.0165 mmol of Compound (1c) mono-hydrochloride salt (corresponding to 5.5 mg of Compound (1c) free base) and 270 mg of SBE6.5-β-CD, Captisol®) were prepared as described in Example 5. […]"}, "[3]": {"assay": "Solubility of Compound (1c) free base in lactose solution", "settings": "pH 3.8 to 4.2"}, "[4]": {"assay": "Stability of Compound (1c) free base/SBE6.5-β-CD guest-host inclusion complex in 0.9% saline (HPLC/UV)", "settings": "SBE6.5-β-CD complex in 0.9% saline"}, "[5]": {"assay": "Stability (impurities) of Compound (1c):SBE6.5-β-CD formulations at different pH values", "method": "The stability of Compound (1c) in formulations containing a Compound (1c): SBE6.5-β-CD guest-host inclusion complex at different pH was determined by analytical HPLC/UV. The mass ratio of Compound (1c) to SBE6.5-β-CD was either 1:54 or 1:50.\nTo prepare the formulations, SBE6.5-β-CD was dissolved in water for injection (WFI) by continuous stirring until a clear solution was obtained. The solution was acidified by addition of 1 N HCl. Compound (1c) was dissolved in the acidified aqueous SBE6.5-β-CD solution and water was added at Q.S. to the final volume to prepare a solution with a nominal concentration of 5.0 mg/mL of Compound (1c). The pH was adjusted with 1 N HCl to the values shown in Table 7 which corresponded to the pH of the final formulation after reconstitution with 0.9% saline. The solution was filtered through a 0.22 μm syringe filter followed by lyophilization to dryness affording a colorless powdery solid. The freeze-dried lyophilizate was reconstituted with 0.9% saline to the nominal target concentration of 5.0 mg/mL of Compound (1c). […]\nAnalytical HPLC/UV was performed on a HPLC chromatograph equipped with a UV detector, a Waters Xbridge® C18 column (4.6× 150 mm; 5 μm) operated at 30° C. and a personal computer for data computation. Gradients of 0.01 M potassium dihydrogen phosphate solution (KH2PO4) solution adjusted to pH to 3.0 with phosphoric acid (H3PO4): acetonitrile=850:150 (v/v) (solvent A) and acetonitrile (MeCN; solvent B) were used in the analytical HPLC/UV analyses. The needle wash was performed with 50% aqueous acetonitrile. Prior to injection into the HPLC/UV system (10 μL injection volume), samples were diluted to a nominal concentration of 0.5 mg/mL of Compound (1c) with a 0.9 M sodium chloride (NaCl) and 0.1 N hydrochloric acid (HCl) diluent. The diluent solution was prepared from 5.26 g (90.0 mmol) of sodium chloride and 850 μL of concentrated hydrochloric acid (HCl) (36-38 wt-%, d 1.184, 1.00 g, 10.2 mmol) diluted to 100 mL solution.\nThe HPLC/UV method used employed a gradient from 10 vol-% of solvent B to 100 vol-% of solvent B with a 36 min runtime at a flow rate of 1.5 mL/min and UV detection at 2=220 nm."}, "[6]": {"assay": "Solubility of Compound (1c) free base in mannitol solution", "settings": "pH 3.8 to 4.2"}, "[7]": {"settings": "Compound (1c):SBE6.5-β-CD 1:50, pH 3.6, 0 h, 5.0 mg/mL in 0.9% saline"}, "[8]": {"settings": "Compound (1c):SBE6.5-β-CD 1:50, pH 3.6, Cake"}, "[9]": {"settings": "Compound (1c):SBE6.5-β-CD 1:54, pH 3, 0 h, 5.0 mg/mL in 0.9% saline"}, "[10]": {"settings": "Compound (1c):SBE6.5-β-CD 1:54, pH 3, Cake"}, "[11]": {"settings": "Compound (1c):SBE6.5-β-CD 1:54, pH 4.1, 0 h, 5.0 mg/mL in 0.9% saline, listed as Compound (1c) Free Base"}, "[12]": {"settings": "Compound (1c):SBE6.5-β-CD 1:54, pH 4.1, Cake, listed as Compound (1c) Free Base"}},
  "note": "At least one structure is not confirmed: it was looked up by name or label, or the drawing left a doubt.",
  "data": [
    {"compound": "Cc1ccc(N(CCCl)CCCl)cc1C[C@H](N)CC(=O)O", "note": "[Compound (1c), (S)-3-amino-4-(5-(bis(2-chloroethyl)amino)-2-methylphenyl) butanoic acid]", "values": [
      {"measurement": "Impurity (% AUC) RRT 0.42", "setting": "[1]", "result": 0.06, "unit": "% AUC"},
      {"measurement": "Impurity (% AUC) RRT 1.27", "setting": "[1]", "result": 0.10, "unit": "% AUC"},
      {"measurement": "Impurity (% AUC) Total", "setting": "[1]", "result": 1.05, "unit": "% AUC"},
      {"measurement": "% API", "setting": "[2]; 0.5 hours, 0.4-0.5 mg/mL, pH 5.8-6.1 (melphalan)", "result": 94, "unit": "%"},
      {"measurement": "% API", "setting": "[2]; 0.5 hours, 0.9-1.1 mg/mL", "result": 99, "unit": "%"},
      {"measurement": "% API", "setting": "[2]; 2.0 hours, 0.4-0.5 mg/mL, pH 5.8-6.1 (melphalan)", "result": 84, "unit": "%"},
      {"measurement": "% API", "setting": "[2]; 2.0 hours, 0.9-1.1 mg/mL", "result": 97, "unit": "%"},
      {"measurement": "% API", "setting": "[2]; 2.0 hours, 1.8-2.1 mg/mL", "result": 98, "unit": "%"},
      {"measurement": "Dissolution in lactose solution", "setting": "[3]; 10 mg Compound (1c) + 500 mg lactose in 5 mL distilled water", "result": "did not fully dissolve"},
      {"measurement": "Dissolution in lactose solution", "setting": "[3]; 10 mg Compound (1c) + 500 mg lactose in 10 mL distilled water", "result": "did not fully dissolve"},
      {"measurement": "Dissolution in lactose solution", "setting": "[3]; 10 mg Compound (1c) + 500 mg lactose in 15 mL distilled water", "result": "fully dissolved"},
      {"measurement": "Compound (1c) (% AUC)", "setting": "[4]; nominal 0.5 mg/mL, 0° C., 31 hours", "result": 82, "unit": "% AUC"},
      {"measurement": "Compound (1c) (% AUC)", "setting": "[4]; nominal 0.5 mg/mL, 25° C., 8 hours", "result": 66, "unit": "% AUC"},
      {"measurement": "Compound (1c) (% AUC)", "setting": "[4]; nominal 1.0 mg/mL, 0° C., 49 hours", "result": 97, "unit": "% AUC"},
      {"measurement": "Compound (1c) (% AUC)", "setting": "[4]; nominal 1.0 mg/mL, 25° C., 5 hours", "result": 90, "unit": "% AUC"},
      {"measurement": "Compound (1c) (% AUC)", "setting": "[4]; nominal 2.0 mg/mL, 0° C., 46 hours", "result": 89, "unit": "% AUC"},
      {"measurement": "Compound (1c) (% AUC)", "setting": "[4]; nominal 2.0 mg/mL, 25° C., 19 hours", "result": 84, "unit": "% AUC"},
      {"measurement": "Impurity (% AUC) RRT 0.42", "setting": "[5]; [7]", "result": 2.28, "unit": "% AUC"},
      {"measurement": "Impurity (% AUC) RRT 1.27", "setting": "[5]; [7]", "result": 0.36, "unit": "% AUC"},
      {"measurement": "Impurity (% AUC) Total", "setting": "[5]; [7]", "result": 2.92, "unit": "% AUC"},
      {"measurement": "Impurity (% AUC) RRT 0.42", "setting": "[5]; [8]", "result": 2.26, "unit": "% AUC"},
      {"measurement": "Impurity (% AUC) RRT 1.27", "setting": "[5]; [8]", "result": 0.35, "unit": "% AUC"},
      {"measurement": "Impurity (% AUC) Total", "setting": "[5]; [8]", "result": 2.86, "unit": "% AUC"},
      {"measurement": "Impurity (% AUC) RRT 0.40", "setting": "[5]; [9]", "result": 0.64, "unit": "% AUC"},
      {"measurement": "Impurity (% AUC) RRT 1.31", "setting": "[5]; [9]", "result": 0.13, "unit": "% AUC"},
      {"measurement": "Impurity (% AUC) Total", "setting": "[5]; [9]", "result": 1.14, "unit": "% AUC"},
      {"measurement": "Impurity (% AUC) RRT 0.40", "setting": "[5]; [10]", "result": 0.62, "unit": "% AUC"},
      {"measurement": "Impurity (% AUC) RRT 1.31", "setting": "[5]; [10]", "result": 0.14, "unit": "% AUC"},
      {"measurement": "Impurity (% AUC) Total", "setting": "[5]; [10]", "result": 1.16, "unit": "% AUC"},
      {"measurement": "Impurity (% AUC) RRT 0.36", "setting": "[5]; [11]", "result": 1.46, "unit": "% AUC"},
      {"measurement": "Impurity (% AUC) RRT 1.31", "setting": "[5]; [11]", "result": 0.19, "unit": "% AUC"},
      {"measurement": "Impurity (% AUC) Total", "setting": "[5]; [11]", "result": 2.01, "unit": "% AUC"},
      {"measurement": "Impurity (% AUC) RRT 0.36", "setting": "[5]; [12]", "result": 1.46, "unit": "% AUC"},
      {"measurement": "Impurity (% AUC) RRT 1.31", "setting": "[5]; [12]", "result": 0.23, "unit": "% AUC"},
      {"measurement": "Impurity (% AUC) Total", "setting": "[5]; [12]", "result": 2.04, "unit": "% AUC"},
      {"measurement": "Dissolution in mannitol solution", "setting": "[6]; 10 mg Compound (1c) + 500 mg mannitol in 5 mL distilled water", "result": "did not fully dissolve"},
      {"measurement": "Dissolution in mannitol solution", "setting": "[6]; 10 mg Compound (1c) + 500 mg mannitol in 10 mL distilled water", "result": "did not fully dissolve"},
      {"measurement": "Dissolution in mannitol solution", "setting": "[6]; 10 mg Compound (1c) + 500 mg mannitol in 15 mL distilled water", "result": "fully dissolved"}
    ]}
  ]
}
